# The list shows a part of the results.
# B1: CcfD (Bacteroides fragilis), Q5L9G4 (protein)
# chain: MKKQNSIYTLLIALLCFVSSCDYLGVSDQLAGGLQNTEQVFDNVSYTKRWYANVFAGIPDYSGINSVNVGAFKNPWTGMCDELVVGYGNSSKYNNSDRNAANMGFHRYGDCYKYIRQANIFLQKAHPIMTTGTQGDQLLEDELTQMKANVRFMRAFYHYLLFEQYGPIILVKDKIYNATEDQDVPRNTVDEVIEYIDSELTAVASELTQEPIFEDKDYRAWPTKGVALAVRAKLWLYAASPLLNGGYREALSVTNPDGTRLFPDYDAGKWEKALAACKDFIDYAEAGRYELYKEYKDDNGAVIDPDKSVYNLFQKYTHEIIWATANNDWGGMNGDAFDRRIAPRCEKNGLGSTGVTQELVDAFYMKDGFPVSATAYLPQSTLYQEEGYGTYKDQNDNFSKKYTNVTVSNRYLNREPRFYNTVFFNGRQWPVSCNQVLFYNGGNSGVQEGQATLTGYMLFKRFNRSVSLTNPGVASQFRPSIIFRLADFYLMYAEAANEVNPNDARVLKYLNLVRERAGLPDIETLNPAIRGNQELQRAAIQRERQIELATEGQRYFDVRRWMIADKNGEGRQNGYVHGMNVRGESNDKEDFNRIVEASQIVFNRKMYLYPMPDSEMRKTKNLVQNPGW
# Legend:
# Assay in all cases: glycan array binding signal (z-score within array); higher = stronger binding
# Settings in all cases: glycan notation: IUPAC condensed, linker removed
# [1] = target: Fuc(a1-2)[GalNAc(b1-3)]Gal
# Summary of the method: (§1)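 The Consortium for Functional Glycomics database supplied 3228 glycan arrays, of which those lacking an available protein sequence were dropped. The binding signal, a within-array Z-score, was averaged across arrays of the same protein sequence and across linkers. Negative scores can be read as non-binding.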
# [2] = target: Fuc(a1-3)GlcNAc
# Summary of the method: as §1
# [3] = target: Fuc(a1-3)[Gal(b1-4)]Glc6S
# Summary of the method: as §1
# [4] = target: Fuc(a1-3)[Gal(b1-4)]GlcNAc
# Summary of the method: as §1
# [5] = target: Fuc(a1-3)[Gal(b1-4)]GlcNAc(b1-2)Man
# Summary of the method: as §1
# [6] = target: Fuc(a1-3)[Gal(b1-4)]GlcNAc(b1-2)Man(a1-3)[Fuc(a1-3)[Gal(b1-4)]GlcNAc(b1-2)Man(a1-6)]Man(b1-4)GlcNAc(b1-4)GlcNAc
# Summary of the method: as §1
# [7] = target: Fuc(a1-3)[Gal(b1-4)]GlcNAc(b1-2)Man(a1-3)[Fuc(a1-3)[Gal(b1-4)]GlcNAc(b1-2)Man(a1-6)]Man(b1-4)GlcNAc(b1-4)[Fuc(a1-6)]GlcNAc
# Summary of the method: as §1
# [8] = target: Fuc(a1-3)[Gal(b1-4)]GlcNAc(b1-3)Gal(b1-3)[Fuc(a1-4)]GlcNAc
# Summary of the method: as §1
# [9] = target: Fuc(a1-3)[Gal(b1-4)]GlcNAc(b1-3)Gal(b1-4)[Fuc(a1-3)]GlcNAc
# Summary of the method: as §1
# [10] = target: Fuc(a1-3)[Gal(b1-4)]GlcNAc(b1-3)Gal(b1-4)[Fuc(a1-3)]GlcNAc(b1-3)Gal(b1-4)[Fuc(a1-3)]GlcNAc
# Summary of the method: as §1
# [11] = target: Fuc(a1-3)[Gal(b1-4)]GlcNAc(b1-3)GalNAc
# Summary of the method: as §1
# [12] = target: Fuc(a1-3)[Gal(b1-4)]GlcNAc(b1-6)GalNAc
# Summary of the method: as §1
# [13] = target: Fuc(a1-3)[Gal(b1-4)]GlcNAc(b1-6)[Gal(b1-3)GlcNAc(b1-3)]Gal(b1-4)Glc
# Summary of the method: as §1
# [14] = target: Fuc(a1-3)[Gal(b1-4)]GlcNAc6S
# Summary of the method: as §1
# [15] = target: Fuc(a1-3)[Gal3S(b1-4)]Glc
# Summary of the method: as §1
# [16] = target: Fuc(a1-3)[Gal3S(b1-4)]GlcNAc
# Summary of the method: as §1
# [17] = target: Fuc(a1-3)[Gal3S(b1-4)]GlcNAc6S
# Summary of the method: as §1
# [18] = target: Fuc(a1-3)[GalNAc(b1-4)]GlcNAc
# Summary of the method: as §1
# [19] = target: Fuc(a1-3)[GalNAc(b1-4)]GlcNAc6S
# Summary of the method: as §1
# [20] = target: Fuc(a1-4)GlcNAc
# Summary of the method: as §1
# [21] = target: Fuc(b1-3)GlcNAc
# Summary of the method: as §1
# [22] = target: Gal(a1-2)Gal
# Summary of the method: as §1
# [23] = target: Gal(a1-3)Gal
# Summary of the method: as §1
# [24] = target: Gal(a1-3)Gal(b1-3)GlcNAc
# Summary of the method: as §1
# [25] = target: Gal(a1-3)Gal(b1-3)GlcNAc(b1-2)Man
# Summary of the method: as §1
# [26] = target: Gal(a1-3)Gal(b1-3)GlcNAc(b1-2)Man(a1-3)[Gal(a1-3)Gal(b1-3)GlcNAc(b1-2)Man(a1-6)]Man(b1-4)GlcNAc(b1-4)GlcNAc
# Summary of the method: as §1
# [27] = target: Gal(a1-3)Gal(b1-3)GlcNAc(b1-3)GalNAc
# Summary of the method: as §1
# [28] = target: Gal(a1-3)Gal(b1-3)GlcNAc(b1-6)GalNAc
# Summary of the method: as §1
# [29] = target: Gal(a1-3)Gal(b1-3)[Fuc(a1-4)]GlcNAc(b1-2)Man(a1-3)[Gal(a1-3)Gal(b1-3)[Fuc(a1-4)]GlcNAc(b1-2)Man(a1-6)]Man(b1-4)GlcNAc(b1-4)GlcNAc
# Summary of the method: as §1
# [30] = target: Gal(a1-3)Gal(b1-4)Glc
# Summary of the method: as §1
binder,measurement,setting,value
B1,glycan array binding signal (z-score),[1],1.45
same,glycan array binding signal (z-score),[2],0.804
same,glycan array binding signal (z-score),[3],-0.292
same,glycan array binding signal (z-score),[4],-0.499
same,glycan array binding signal (z-score),[5],-0.253
same,glycan array binding signal (z-score),[6],-1
same,glycan array binding signal (z-score),[7],-0.259
same,glycan array binding signal (z-score),[8],-0.916
same,glycan array binding signal (z-score),[9],0.667
same,glycan array binding signal (z-score),[10],-0.765
same,glycan array binding signal (z-score),[11],-0.851
same,glycan array binding signal (z-score),[12],0.325
same,glycan array binding signal (z-score),[13],-0.207
same,glycan array binding signal (z-score),[14],0.312
same,glycan array binding signal (z-score),[15],0.016
same,glycan array binding signal (z-score),[16],-0.903
same,glycan array binding signal (z-score),[17],-0.811
same,glycan array binding signal (z-score),[18],1.65
same,glycan array binding signal (z-score),[19],0.496
same,glycan array binding signal (z-score),[20],-0.03
same,glycan array binding signal (z-score),[21],0.181
same,glycan array binding signal (z-score),[22],0.601
same,glycan array binding signal (z-score),[23],0.358
same,glycan array binding signal (z-score),[24],-0.988
same,glycan array binding signal (z-score),[25],-1.47
same,glycan array binding signal (z-score),[26],0.804
same,glycan array binding signal (z-score),[27],-0.299
same,glycan array binding signal (z-score),[28],-0.818
same,glycan array binding signal (z-score),[29],-0.785
same,glycan array binding signal (z-score),[30],-0.141

# Reprinted at random: two entries already listed, in no set order.
binder,measurement,setting,value
B1,glycan array binding signal (z-score),[29],-0.785
same,glycan array binding signal (z-score),[16],-0.903

# Reference: the supplement of paper PMC8728848
